Library screen at single concentrations

Protein sequences, listed by entry. Tags and fused reporters are not part of them. Residues count along the entry.
UniProt A4I591, 1-473: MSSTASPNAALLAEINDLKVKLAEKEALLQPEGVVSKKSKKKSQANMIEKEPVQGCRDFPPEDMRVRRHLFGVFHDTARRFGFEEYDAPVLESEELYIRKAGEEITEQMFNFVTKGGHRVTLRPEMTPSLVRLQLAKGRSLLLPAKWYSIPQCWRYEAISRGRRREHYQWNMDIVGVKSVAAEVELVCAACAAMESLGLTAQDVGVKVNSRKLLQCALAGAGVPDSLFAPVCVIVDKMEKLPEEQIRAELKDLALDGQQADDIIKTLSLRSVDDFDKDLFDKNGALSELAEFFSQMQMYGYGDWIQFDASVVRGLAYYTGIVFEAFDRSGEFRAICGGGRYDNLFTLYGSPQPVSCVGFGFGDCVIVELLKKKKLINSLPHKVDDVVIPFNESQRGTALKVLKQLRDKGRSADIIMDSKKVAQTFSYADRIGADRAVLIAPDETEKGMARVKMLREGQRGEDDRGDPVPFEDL
UniProt Q8IDJ8, 1-583: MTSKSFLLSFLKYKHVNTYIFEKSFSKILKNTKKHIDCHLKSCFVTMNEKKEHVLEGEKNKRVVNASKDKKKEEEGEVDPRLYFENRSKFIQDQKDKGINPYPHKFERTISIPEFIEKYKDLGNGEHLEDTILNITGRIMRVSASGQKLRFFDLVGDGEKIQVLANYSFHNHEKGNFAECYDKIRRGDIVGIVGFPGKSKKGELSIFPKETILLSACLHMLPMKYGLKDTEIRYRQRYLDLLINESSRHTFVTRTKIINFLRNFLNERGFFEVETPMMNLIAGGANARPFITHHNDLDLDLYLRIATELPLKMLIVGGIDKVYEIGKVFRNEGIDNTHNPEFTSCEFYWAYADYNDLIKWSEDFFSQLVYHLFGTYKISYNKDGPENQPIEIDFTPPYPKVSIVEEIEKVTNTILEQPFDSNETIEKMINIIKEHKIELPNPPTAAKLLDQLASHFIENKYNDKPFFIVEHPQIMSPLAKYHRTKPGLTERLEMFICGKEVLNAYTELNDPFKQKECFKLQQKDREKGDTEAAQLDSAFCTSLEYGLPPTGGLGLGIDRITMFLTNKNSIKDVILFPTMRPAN
UniProt Q4DA54, 1-478: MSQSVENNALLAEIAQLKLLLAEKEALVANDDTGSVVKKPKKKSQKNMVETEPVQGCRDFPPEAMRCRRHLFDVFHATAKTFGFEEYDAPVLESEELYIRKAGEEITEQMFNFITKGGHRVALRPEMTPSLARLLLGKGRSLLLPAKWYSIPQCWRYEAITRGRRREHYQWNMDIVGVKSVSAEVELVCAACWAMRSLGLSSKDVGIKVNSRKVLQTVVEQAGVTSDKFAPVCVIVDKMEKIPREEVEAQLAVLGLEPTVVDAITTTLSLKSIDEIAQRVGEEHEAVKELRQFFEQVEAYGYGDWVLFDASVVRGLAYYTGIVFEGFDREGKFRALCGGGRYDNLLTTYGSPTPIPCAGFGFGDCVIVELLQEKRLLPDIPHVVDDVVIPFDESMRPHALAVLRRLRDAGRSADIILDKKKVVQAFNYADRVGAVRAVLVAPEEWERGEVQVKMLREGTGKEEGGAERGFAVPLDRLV

LiHisRS: 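Enzyme assay of histidyl-tRNA synthetase; the read-out is not stated. Target: Histidine-tRNA ligase, Leishmania infantum (UniProt A4I591). Concentration: 30 µM. Direction is inferred from retests: higher values go with stronger inhibition. The assay is labelled LdHisRS but filed under L. infantum. Size under these conditions: about 69,000 compounds, about 410 of them at 50% or above in at least one test.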
PfKRS1: 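Lysine-tRNA ligase, Plasmodium falciparum 3D7 (UniProt Q8IDJ8). Enzyme assay of the cytosolic lysyl-tRNA synthetase in 384-well plates, read by luminescence. Concentration: 30 µM. Direction is inferred from only a few compounds that gave an IC50; most scored high, so higher reads as stronger inhibition. About 69,000 compounds were tested under these conditions; 0.071% (about 49) showed 50% or more at least once.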
TcHisRS: 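Histidine-tRNA ligase, Trypanosoma cruzi CL Brener (UniProt Q4DA54). Enzyme assay of histidyl-tRNA synthetase; the read-out is not stated. Concentration: 30 µM. Direction is inferred from retests: higher values go with stronger inhibition. Size under these conditions: about 69,000 compounds, about 31 of them at 50% or above in at least one test.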

The filed quantity is “Percent Effect” (%).
The record does not define 0% and 100%; most values in the screen are far below 50% and negative numbers occur (in some assays of this library far below -100).
This is an unselected part of the compounds tested.

{"compound": "Cc1ccccc1N1CCCN(C(=O)CCc2cccnc2)CC1", "LiHisRS": 12.12, "PfKRS1": 4.468, "TcHisRS": 4.348}
{"compound": "Cc1cccc(OCCNC(=O)CN2CCCC2Cn2cccn2)c1", "stereo": "centres unmarked", "LiHisRS": 16.67, "PfKRS1": 4.333, "TcHisRS": 2.273}
{"compound": "Cc1cc(C)n(C2CN(CC(O)COc3ccc(F)cc3)C2)n1", "stereo": "centres unmarked", "LiHisRS": 10.96, "PfKRS1": -1.171, "TcHisRS": 4.58}
{"compound": "O=S(=O)(c1ccccc1Cl)N1CCc2nc(C3CCNCC3)ncc2C1", "LiHisRS": 22.86, "PfKRS1": 6.178, "TcHisRS": 9.677}
{"compound": "Cc1cc(C(=O)N2CCNC(=O)C2)c(C)n1Cc1ccccn1", "LiHisRS": 9.804, "PfKRS1": 7.784, "TcHisRS": 12.35}
{"compound": "COc1ccc(C2(CNC(C)c3nnc(C)o3)CCCCC2)cc1", "stereo": "centres unmarked", "LiHisRS": 11.54, "PfKRS1": -0.9482, "TcHisRS": 5}
{"compound": "Cn1cc(C2CCCN2C(=O)CCc2cnn(-c3ccccc3)c2)cn1", "stereo": "centres unmarked", "LiHisRS": 14.55, "PfKRS1": -1.503, "TcHisRS": 2.924}
{"compound": "Cc1nc2scc(C)n2c1CNc1ccc(C(=O)O)cc1", "LiHisRS": 24.66, "PfKRS1": -2.029, "TcHisRS": -1.053}
{"compound": "COc1ccc(CN2CCCN(c3cc(C(N)=O)ccn3)CC2)cc1", "LiHisRS": 6.349, "PfKRS1": -3.162, "TcHisRS": 4.04}
{"compound": "Fc1ccccc1C(CNc1ccncn1)N1CCCC1", "stereo": "centres unmarked", "LiHisRS": 3.297, "PfKRS1": -8.1, "TcHisRS": -2.97}
{"compound": "COc1ccc(N2CCC(NCc3csc(C(C)C)n3)CC2)cc1", "LiHisRS": 12.5, "PfKRS1": 0.4038, "TcHisRS": 11.39}
{"compound": "CCCOCC1CCN(C(=O)Cn2cccc(OC)c2=O)C1", "stereo": "centres unmarked", "LiHisRS": 97.44, "PfKRS1": 25.67, "TcHisRS": 10.27}
{"compound": "COc1ccc2c(c1)CCN(Cc1cscn1)CC2", "LiHisRS": 11.48, "PfKRS1": 1.564, "TcHisRS": 8.081}
{"compound": "CCC(Nc1nccc(C2CCCC2)n1)c1ccccn1", "stereo": "centres unmarked", "LiHisRS": 30.26, "PfKRS1": 0.3936, "TcHisRS": 2.174}
{"compound": "O=C1CC(c2ccc(C(=O)O)cc2)c2ncn(-c3cccc(Cl)c3)c2N1", "stereo": "centres unmarked", "LiHisRS": 51.67, "PfKRS1": 5.207, "TcHisRS": 14.77}
{"compound": "CCN1CCN(C2CCN(Cc3ncc(C(C)(C)C)o3)CC2)C1=O", "LiHisRS": 0, "PfKRS1": 2.553, "TcHisRS": -3.396}
{"compound": "Cc1nncn1CCNC(=O)C(C)(C)c1cccc(F)c1", "LiHisRS": 14.04, "PfKRS1": 6.568, "TcHisRS": 2.521}
{"compound": "CCCN1CCCN(C(=O)C(CC)N2CCCC2=O)CC1", "stereo": "centres unmarked", "LiHisRS": -0.8772, "PfKRS1": 7.929, "TcHisRS": 5.172}
{"compound": "Cc1ncc(C(=O)N2CC[C@@]3(O)CCN(C(=O)N(C)C)C[C@H]3C2)cn1", "LiHisRS": 10.64, "PfKRS1": 2.357, "TcHisRS": 6.358}
{"compound": "CCCc1nc(CN(CCO)Cc2cc(Br)ccc2F)no1", "LiHisRS": 8.333, "PfKRS1": 3.955, "TcHisRS": 1.042}
{"compound": "Cn1ncnc1-c1ccnc(NCc2ccncc2)n1", "LiHisRS": 6.667, "PfKRS1": -2.009, "TcHisRS": -1.19}
{"compound": "O=C(NC[C@]12COC[C@H]1CN(Cc1nccs1)C2)N1CCCC1", "LiHisRS": 13.59, "PfKRS1": 3.557, "TcHisRS": -4.918}
{"compound": "CC(=O)N1CCCN(C(=O)c2cnc3n[nH]c(C)c3c2)CC1", "LiHisRS": -1.515, "PfKRS1": 3.615, "TcHisRS": 0}
{"compound": "CC(C)NC(=O)[C@@H]1C[C@@H]2CCN(Cc3ccoc3)C[C@H]2O1", "LiHisRS": 17.27, "PfKRS1": 3.599, "TcHisRS": 6.349}
{"compound": "O=C(CN1CCS(=O)(=O)CC1)NC1CCCCc2ccccc21", "stereo": "centres unmarked", "LiHisRS": 20.97, "PfKRS1": 3.572, "TcHisRS": 3.247}
{"compound": "COc1ccc(N2CCCN(C(=O)Cc3csc(C)n3)CC2)cc1", "LiHisRS": 7.547, "PfKRS1": 0.8422, "TcHisRS": -0.8333}
{"compound": "CC(=O)N(C)C1CCN(C(=O)NCC(C)Cc2cccs2)CC1", "stereo": "centres unmarked", "LiHisRS": -6.061, "PfKRS1": 3.139, "TcHisRS": 3.261}
{"compound": "Cc1sc(CN)nc1-c1ccccc1", "LiHisRS": -4.819, "PfKRS1": 3.28, "TcHisRS": 7.182}
{"compound": "CC(C)(C)OC(=O)NCCNC(=O)c1cnc(-c2ccccc2)nc1", "LiHisRS": 13.11, "PfKRS1": 0.9677, "TcHisRS": 4.651}
{"compound": "Cc1cc(CN2CCCN(c3ccc(C#N)cc3)CC2)no1", "LiHisRS": 12.64, "PfKRS1": 0.2286, "TcHisRS": 10.31}
{"compound": "Cn1cc(CN2CC[C@@H](NS(C)(=O)=O)[C@@H]2Cc2cccnc2)cn1", "LiHisRS": -2.941, "PfKRS1": 0.4412, "TcHisRS": 0}
{"compound": "COCc1cncc2c1CCN(C(=O)c1cscn1)C2", "LiHisRS": -3.96, "PfKRS1": 0.581, "TcHisRS": -0.5025}
{"compound": "COc1ccccc1CN1CCC2(CC1)CC(Oc1ccccn1)CO2", "stereo": "centres unmarked", "LiHisRS": 12.41, "PfKRS1": -4.516, "TcHisRS": 1.639}
{"compound": "O=C(c1c(O)cnc2ccccc12)N1CCCSCC1", "LiHisRS": 14.46, "PfKRS1": 1.344, "TcHisRS": 9.392}
{"compound": "COc1ccc(CN(C)C(=O)CN2CC(n3cccn3)C2)cc1F", "LiHisRS": 1.036, "PfKRS1": 0.8051, "TcHisRS": -1.657}
{"compound": "COCCC1(CNC(=O)NCC2CCCN(C)C2)CCC1", "stereo": "centres unmarked", "LiHisRS": 0, "PfKRS1": 6.563, "TcHisRS": 2.618}
{"compound": "COc1c(F)ccc(C(=O)N2CC[C@H](CO)[C@@H](O)C2)c1F", "LiHisRS": 16.67, "PfKRS1": 14.96, "TcHisRS": -2.041}
{"compound": "Cc1cnc(CN2C[C@H]3C[C@H](Oc4ccccc4)C[C@H]3C2)cn1", "LiHisRS": 3.448, "PfKRS1": -0.3647, "TcHisRS": 6.084}
{"compound": "O=S1(=O)CCN2C(=N1)Oc1ccc(Cl)cc12", "LiHisRS": -10.53, "PfKRS1": -6.971, "TcHisRS": 0}

Measurements from “University of Dundee, Small-Polar-MMV Screening Library” (2021), ChEMBL document CHEMBL3988442.